Results taken from PubChem BioAssay AID330 (DTP/NCI, 2004).
The list does not hold the whole screen: it is rich in T/C values a quarter to a half above the control, in often repeated tests (any T/C) and in doses without a T/C. Further doses and runs are listed elsewhere. T/C is the treated group as % of the vehicle group. Some entries give survivors of the animals treated and no T/C: the source files T/C as zero there, which appears to mark a toxic dose or a test without result, not a measured value. Some survivor counts are full or nearly so, which does not show that the dose was tolerated: survival well below the control is almost never listed, so the zero probably covers shortened survival too. Survivors were counted at the toxicity check, usually on the fifth day, unless a day is given; later deaths do not show. Schedule codes are those of the source, read here as Q, the interval in days (D) or hours (H), X, the number of doses. Signs of the kind (2×) stand for listed records that agree. Where survival is the endpoint, this PubChem deposit counts one and a half times the control or more as active, and values a quarter to a half above the control carry no call in these data; other NCI protocols may use other cut-offs. Some entries were tested several times; the results are listed from low to high. Some T/C values carry the count of animals alive at the toxicity check (mostly the fifth day); without a count, all were alive then.

Tested on: P388 leukemia ip, CD2F1 mice, survival T/C
Test: NCI In Vivo Anticancer Drug Screen. Data for tumor model P388 Leukemia (intraperitoneal) in CD2F1 (CDF1) mice
Conditions: T/C endpoint: median survival time, higher T/C = longer survival
[1] = dose: 100.0 mg/kg/injection, schedule: Q01DX009 (ip), vehicle: distilled water + Tween-80
[2] = dose: 200.0 mg/kg/injection, schedule: Q01DX009 (ip), vehicle: distilled water + Tween-80
[3] = dose: 100.0 mg/kg/injection, schedule: Q01DX009 (ip), vehicle: saline with Tween-80
[4] = dose: 200.0 mg/kg/injection, schedule: Q01DX009 (ip), vehicle: saline with Tween-80
[5] = dose: 400.0 mg/kg/injection, schedule: Q01DX009 (ip), vehicle: saline with Tween-80
[6] = dose: 240.0 mg/kg/injection, schedule: Q01DX005 (ip), vehicle: saline with Tween-80
[7] = dose: 120.0 mg/kg/injection, schedule: Q01DX005 (ip), vehicle: saline with Tween-80
[8] = dose: 50.0 mg/kg/injection, schedule: Q01DX005 (ip), vehicle: saline with Tween-80
[9] = dose: 100.0 mg/kg/injection, schedule: Q01DX005 (ip), vehicle: saline with Tween-80
[10] = dose: 200.0 mg/kg/injection, schedule: Q01DX005 (ip), vehicle: saline with Tween-80
[11] = dose: 200.0 mg/kg/injection, schedule: Q01DX005 (ip), vehicle: Klucel (hydroxypropylcellulose) (HPC)
[12] = dose: 200.0 mg/kg/injection, schedule: Q04DX003 (ip), vehicle: saline with Tween-80
[13] = dose: 400.0 mg/kg/injection, schedule: Q04DX003 (ip), vehicle: saline with Tween-80

CNC(=O)OCc1c(COC(=O)NC)c(-c2cccc(F)c2F)n2c1CCC2
T/C (dose: 3.13 mg/kg/injection, schedule: Q01DX009 (ip), vehicle: distilled water + Tween-80): 134 % of control | T/C (dose: 6.25 mg/kg/injection, schedule: Q01DX009 (ip), vehicle: distilled water + Tween-80): 131 % of control | T/C (dose: 12.5 mg/kg/injection, schedule: Q01DX009 (ip), vehicle: distilled water + Tween-80): 149 % of control | survivor count (dose: 50.0 mg/kg/injection, schedule: Q01DX009 (ip), vehicle: distilled water + Tween-80): 2 of 6 (2×) | survivor count [1]: 0 of 6 | survivor count [2]: 0 of 6

CC(C)(C)OC(=O)NC(Cc1ccccc1)C(=O)O (centres undefined)
survivor count (dose: 12.5 mg/kg/injection, schedule: Q01DX009 (ip), vehicle: Klucel (hydroxypropylcellulose) (HPC)): 6 of 6

CCN(CC)CCNC(=O)c1cc(Cl)c(N)cc1OC
T/C (dose: 25.0 mg/kg/injection, schedule: Q01DX005 (ip), vehicle: water): 126 % of control | survivor count (dose: 200.0 mg/kg/injection, schedule: Q01DX005 (ip), vehicle: water): 0 of 6

NC(=S)N=Nc1c(O)n(CCCO)c2ccccc12
survivor count (dose: 240.0 mg/kg/injection, schedule: Q01DX005 (ip), vehicle: Klucel (hydroxypropylcellulose) (HPC)): 1 of 6

CC1C(=O)OC(C)(C)C1(C)C (centres undefined)
survivor count [3]: 0 of 6 | survivor count [4]: 0 of 6 | survivor count [5]: 0 of 6

CSC(SC)(C(=O)O)c1cc(-c2c(Cl)cccc2Cl)no1
survivor count [6]: 3 of 6

CC(=NC(C)C)N1CCCCC1
survivor count (dose: 200.0 mg/kg/injection, schedule: Q01DX009 (ip), vehicle: saline): 0 of 6

CCOC(=O)/C(C#N)=C/Nc1ccncc1
survivor count [4]: 3 of 6

OCCC1CCN(CC/C=C2/c3ccc(F)cc3Sc3ccc(C(F)(F)F)cc32)CC1
survivor count (dose: 0.39 mg/kg/injection, schedule: Q01DX001 (ip), vehicle: saline): 4 of 6 | survivor count (dose: 0.78 mg/kg/injection, schedule: Q01DX001 (ip), vehicle: saline): 3 of 6 | survivor count (dose: 1.56 mg/kg/injection, schedule: Q01DX001 (ip), vehicle: saline): 0 of 6 | survivor count (dose: 3.12 mg/kg/injection, schedule: Q01DX001 (ip), vehicle: saline): 0 of 6 | survivor count (dose: 100.0 mg/kg/injection, schedule: Q01DX001 (ip), vehicle: saline with Tween-80): 0 of 6 | survivor count (dose: 200.0 mg/kg/injection, schedule: Q01DX001 (ip), vehicle: saline with Tween-80): 0 of 6 | survivor count (dose: 400.0 mg/kg/injection, schedule: Q01DX001 (ip), vehicle: saline with Tween-80): 0 of 6 | T/C (dose: 100.0 micrograms/kg/injection, schedule: Q01DX001 (ip), vehicle: saline): 128 % of control | T/C (dose: 200.0 micrograms/kg/injection, schedule: Q01DX001 (ip), vehicle: saline): 130 and 135 % of control | T/C (dose: 400.0 micrograms/kg/injection, schedule: Q01DX001 (ip), vehicle: saline): 135 % of control

O=C1CC2CC(=O)C(S(=O)c3ccccc3)C2C1 (centres undefined)
survivor count [6]: 3 of 6

COc1ccc(/C(O)=C/c2nc3cccc([N+](=O)[O-])c3[nH]c2=O)cc1
survivor count [7]: 6 of 6 | survivor count [6]: 6 of 6

O=S1(=O)CCC2=CC(C(F)(F)F)=CC(C(F)(F)F)=CN21
survivor count [8]: 5 of 5 | survivor count [9]: 1 of 6 | survivor count [10]: 0 of 6

C1CN1c1nnc(N2CC2)nn1
T/C (dose: 3.75 mg/kg/injection, schedule: Q01DX005 (ip), vehicle: saline): 144 % of control | T/C (dose: 7.5 mg/kg/injection, schedule: Q01DX005 (ip), vehicle: saline): 129 % of control | survivor count (dose: 30.0 mg/kg/injection, schedule: Q01DX005 (ip), vehicle: saline): 5 of 6 | survivor count (dose: 60.0 mg/kg/injection, schedule: Q01DX005 (ip), vehicle: saline with Tween-80): 6 of 6 | survivor count [7]: 0 of 6 | survivor count [6]: 0 of 6

O=C1CCCC2OC12 (centres undefined)
survivor count (dose: 400.0 mg/kg/injection, schedule: Q04DX002 (ip), vehicle: saline): 0 of 6

O=C1OC(C2OC(=O)C(=O)C2C(=O)c2ccc([N+](=O)[O-])cc2)C(C(=O)c2ccc([N+](=O)[O-])cc2)C1=O (centres undefined)
survivor count [6]: 6 of 6

COc1ccc(C[n+]2ccccc2C#N)cc1OC
survivor count [11]: 0 of 5

CC[CH2][Sn](=[O])[c]1ccccc1
T/C (dose: 100.0 mg/kg/injection, schedule: Q01DX009 (ip), vehicle: saline): 130 and 134 % of control

CCCn1c(C)nc2cc(C)cc(N)c21
survivor count [9]: 0 of 6 | survivor count [10]: 0 of 6

CCC[CH2][Sn]1([CH2]CCC)[O]OC(c2ccc(C)cc2)[O]1 (centres undefined)
T/C (dose: 1.5 mg/kg/injection, schedule: Q01DX009 (ip), vehicle: saline with Tween-80): 143 % of control

CC(C)(C)COSc1ccccc1
survivor count [12]: 0 of 6 | survivor count [13]: 0 of 6

CCCCOC1OCN(C)CC1(C)C (centres undefined)
T/C [3]: 134 % of control | T/C [4]: 126 % of control [5 of 6 alive]

COc1cc2c[n+](C)c3c(c2cc1OC)Cc1cc(OS(C)(=O)=O)c(OC)cc1-3
T/C (dose: 25.0 mg/kg/injection, schedule: Q01DX005 (ip), vehicle: saline with Tween-80): 128 % of control | T/C [8]: 136 % of control | T/C [9]: 137 % of control | T/C [10]: 145 % of control [5 of 6 alive]

COc1ccc(S(=O)(=O)NN)cc1
survivor count (dose: 400.0 mg/kg/injection, schedule: Q01DX009 (ip), vehicle: other): 2 of 6

Clc1ccc(C[P+](c2ccccc2)(c2ccccc2)c2ccccc2)cc1Cl
survivor count [3]: 0 of 6 | survivor count [4]: 0 of 6 | survivor count [5]: 0 of 6

CCOC(=O)c1ccc(NN=NCCOC)cc1
T/C [1]: 129 and 138 % of control | survivor count [2]: 6 of 6

C=C1C(=O)OC2/C=C(\CO)C3OC3C3OC3(C)CC(OC(=O)/C(=C/C)COC(C)=O)C12 (centres undefined)
survivor count (dose: 100.0 mg/kg/injection, schedule: Q01DX005 (ip), vehicle: Klucel (hydroxypropylcellulose) (HPC)): 0 of 6 | survivor count [11]: 0 of 6

O=[N+]([O-])c1cc2[nH]cnc2c([N+](=O)[O-])c1N1CCCCC1
survivor count (dose: 100.0 mg/kg/injection, schedule: Q04DX003 (ip), vehicle: saline with Tween-80): 3 of 6 | survivor count [12]: 1 of 6 | survivor count [13]: 5 of 6

CC[As](CC)SC1CC(OC(=O)c2ccccc2)C(OC(=O)c2ccccc2)C(COC(=O)c2ccccc2)O1 (centres undefined)
survivor count [4]: 0 of 6

O=C(O)c1cc2oc(-c3ccccc3)cc2[nH]1
survivor count [6]: 0 of 6

CCOC(=O)C(Cc1ccc(N(CCCl)CCCl)cc1)NC(=O)C(Cc1ccccc1)NC(=O)C(NC(=O)CNC(=O)C1CCCN1)C(C)C (centres undefined)
T/C (dose: 5.0 mg/kg/injection, schedule: Q04DX003 (ip), vehicle: water): 130 % of control

CC(C)c1oc(=O)cc2c1C(O)C1OC(=O)C3(C)C(O)C4OC4C2(C)C13 (centres undefined)
T/C (dose: 60.0 mg/kg/injection, schedule: Q01DX005 (ip), vehicle: Klucel (hydroxypropylcellulose) (HPC)): 133 % of control [4 of 5 alive]

O=C(CBr)c1cc2c(cc1Br)OCO2
survivor count (dose: 50.0 mg/kg/injection, schedule: Q01DX001 (ip), vehicle: Klucel (hydroxypropylcellulose) (HPC)): 0 of 6 | survivor count (dose: 100.0 mg/kg/injection, schedule: Q01DX001 (ip), vehicle: Klucel (hydroxypropylcellulose) (HPC)): 0 of 6 | survivor count (dose: 200.0 mg/kg/injection, schedule: Q01DX001 (ip), vehicle: Klucel (hydroxypropylcellulose) (HPC)): 0 of 6

CC(C)(C)c1cc(-c2cc(C(C)(C)C)nc(N)n2)nc(N)n1
survivor count (dose: 240.0 mg/kg/injection, schedule: Q01DX005 (ip), vehicle: saline): 1 of 6

CC(Nc1ccc([N+](=O)[O-])c2nonc12)C(=O)O (centres undefined)
survivor count (dose: 50.0 mg/kg/injection, schedule: Q01DX009 (ip), vehicle: saline with Tween-80): 6 of 6 | survivor count [3]: 6 of 6
